Hit rate of the full screen: of about 310,000 compounds, about 17,000 (5.5%) were called active. Inconclusive means that the source gave no clear call. Such entries were picked first, then a sample of the others. Calls follow the shape of the dose curve; as a rule, active = well fitted inhibition curve with a large enough effect; inconclusive = small, poorly fitted or top-dose-only effect, or effect the other way; inactive = no such curve, though single readings can be large or run the other way. Where the call is inconclusive, the potency comes from a doubtful curve fit.
These compounds were tested against Nuclear receptor ROR-gamma (Mus musculus) (UniProt P51450) (assay: qHTS for inhibitors of ROR gamma transcriptional activity). Conditions: Drosophila S2 Gal4-RORgamma UAS-luciferase reporter, 20 h; activity change, negative = inhibition: at 53.6 µM (top of the series).
Outline: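 Compounds are pin-transferred onto Drosophila Schneider cells expressing a copper-inducible Gal4–ROR gamma transactivation domain fusion. After 1 hr, copper sulfate is added to 700 uM final; luciferase is read 20 hr later.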
% is scaled to controls: 0 for no effect and ±100 for the full control effect; potency is read from the fitted curve at half-maximal effect.
Also: nearly all actives have a fitted effect of over 60% in size.

Chains of the proteins cited; added tags and fusions are not shown. Lines headed by an entry give the natural chain unless they say otherwise; changes in a name come on top.
UniProt P51450: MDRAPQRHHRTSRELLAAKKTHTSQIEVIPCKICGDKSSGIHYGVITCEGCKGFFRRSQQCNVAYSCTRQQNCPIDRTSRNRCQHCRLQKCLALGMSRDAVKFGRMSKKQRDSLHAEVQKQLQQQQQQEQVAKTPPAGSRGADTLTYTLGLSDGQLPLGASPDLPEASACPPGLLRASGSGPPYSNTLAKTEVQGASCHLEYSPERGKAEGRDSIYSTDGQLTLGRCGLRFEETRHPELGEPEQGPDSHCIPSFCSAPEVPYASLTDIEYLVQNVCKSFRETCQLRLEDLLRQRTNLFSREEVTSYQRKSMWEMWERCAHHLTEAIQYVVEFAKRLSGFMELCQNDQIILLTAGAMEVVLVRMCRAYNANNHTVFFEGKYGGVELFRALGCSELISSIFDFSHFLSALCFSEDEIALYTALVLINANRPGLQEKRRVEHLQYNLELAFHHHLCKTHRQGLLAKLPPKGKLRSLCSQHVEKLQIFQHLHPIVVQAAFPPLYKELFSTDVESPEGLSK

Row | SMILES | activity change, negative = inhibition | Potency
1 | OCc1nc2ccccc2n1CCCOc1ccc(Br)cc1 | inactive: 13.6% | 
2 | O=C1C(=O)N(CCN2CCOCC2)C(c2ccc([N+](=O)[O-])cc2)/C1=C(/O)c1ccc2c(c1)OCO2 (stereo not given) |  | active: 7.94 µM
3 | O=C(CNC(=S)NC(=O)c1ccc(Br)o1)c1ccccc1 |  | active: 12.6 µM
4 | COc1cccc(Cn2c(NCc3cccnc3)nc3c2c(=O)n(C)c(=O)n3C)c1 |  | inconclusive: 25.1 µM [activator, single point]
5 | CCC(=O)Nc1ccc(N2CCN(C(=O)c3cccs3)CC2)cc1 | inactive: 15% | 
6 | CCN(CC(=O)Nc1ccc([N+](=O)[O-])cc1OC)CC(=O)NC(C)(C)C |  | inconclusive: 35.5 µM [activator, single point]
7 | O=c1[nH]c(/C(Cl)=C/c2c(F)cccc2Cl)nc2cc(Cl)ccc12 |  | inconclusive: 20 µM [inhibitor, single point]
8 | CS(=O)(=O)Nc1cccc(-c2nc(N3CCOCC3)c3ccccc3n2)c1 | inactive: 13.1% | 
9 | CCCc1cc(C(=O)OC)c(NC(=O)CCCC(=O)O)s1 | inactive: 2.38% | 
10 | COc1ccccc1-c1nc(SC)n[nH]1 |  | inconclusive: 35.5 µM [inhibitor, single point]
11 | COc1ccccc1N1CCN(C2CCCN(C(=O)c3cc(C)oc3C)C2)CC1 (stereo not given) | inactive: -12.2% | 
12 | Cc1nc2ccc(S(=O)(=O)Nc3cccc(-c4nc5cccnc5s4)c3)cc2s1 |  | inconclusive: 17.8 µM [activator, single point]
13 | CC(=O)N1CCN(c2nc(C)nc3sc4c(c23)CCC(C)C4)CC1 (stereo not given) | inactive: -7.95% | 
14 | Cc1cccc2c1-c1sc(C(=O)NCCCN3CCCC(C)C3)cc1CO2 (stereo not given) |  | inconclusive: 35.5 µM [inhibitor, single point]
15 | O=S1(=O)N=C(N2CCN(Cc3ccccc3)CC2)c2ccccc21 |  | inconclusive: 1.12 µM [inhibitor, single point]
16 | CCN(CC)S(=O)(=O)c1ccc(S(=O)(=O)N2CCCC(C(=O)NC3CC3)C2)cc1 (stereo not given) |  | inconclusive: 8.91 µM [activator, partial curve]
17 | O=C(O)c1cccc2c1C(=O)c1ccccc1C2=O | inactive: -11.8% | 
18 | CCOc1ccc(-c2cc(C(=O)N/N=C/c3cccnc3)c3ccccc3n2)cc1 |  | inconclusive: 35.5 µM [inhibitor, single point]
19 | Cc1ccccc1NC1=C/C(=N\S(=O)(=O)c2ccc(C(=O)O)cc2)c2ccccc2C1=O |  | inconclusive: 11.2 µM [inhibitor, single point]
20 | CC1CCCN(C(=O)c2cccc(S(=O)(=O)Nc3cc(C(F)(F)F)ccc3Cl)c2)C1 (stereo not given) |  | inconclusive: 22.4 µM [activator, single point]
